The values below come from the supplement of paper PMC6411743.

Sequences of proteins named here, by UniProt entry; tags and fusion partners are left off. A change or cut given only in a name is not applied to a line headed by its entry.
UniProt O43823: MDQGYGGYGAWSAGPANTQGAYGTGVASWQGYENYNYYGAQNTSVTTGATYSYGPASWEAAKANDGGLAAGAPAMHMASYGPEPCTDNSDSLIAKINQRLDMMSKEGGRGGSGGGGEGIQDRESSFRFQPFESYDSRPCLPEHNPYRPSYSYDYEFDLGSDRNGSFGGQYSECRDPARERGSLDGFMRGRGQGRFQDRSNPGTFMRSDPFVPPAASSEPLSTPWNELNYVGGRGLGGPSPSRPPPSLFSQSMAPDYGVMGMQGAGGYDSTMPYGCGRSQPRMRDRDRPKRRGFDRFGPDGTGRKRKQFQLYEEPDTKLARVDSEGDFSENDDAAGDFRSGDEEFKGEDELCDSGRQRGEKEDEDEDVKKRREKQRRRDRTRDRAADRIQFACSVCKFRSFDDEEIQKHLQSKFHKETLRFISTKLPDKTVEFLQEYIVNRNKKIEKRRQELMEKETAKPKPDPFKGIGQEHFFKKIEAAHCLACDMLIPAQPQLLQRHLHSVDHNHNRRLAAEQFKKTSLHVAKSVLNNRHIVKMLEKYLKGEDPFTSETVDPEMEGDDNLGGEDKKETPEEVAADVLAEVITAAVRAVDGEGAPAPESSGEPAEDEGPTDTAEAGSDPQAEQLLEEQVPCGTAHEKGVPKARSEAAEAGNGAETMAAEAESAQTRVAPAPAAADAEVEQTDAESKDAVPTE
UniProt P55899: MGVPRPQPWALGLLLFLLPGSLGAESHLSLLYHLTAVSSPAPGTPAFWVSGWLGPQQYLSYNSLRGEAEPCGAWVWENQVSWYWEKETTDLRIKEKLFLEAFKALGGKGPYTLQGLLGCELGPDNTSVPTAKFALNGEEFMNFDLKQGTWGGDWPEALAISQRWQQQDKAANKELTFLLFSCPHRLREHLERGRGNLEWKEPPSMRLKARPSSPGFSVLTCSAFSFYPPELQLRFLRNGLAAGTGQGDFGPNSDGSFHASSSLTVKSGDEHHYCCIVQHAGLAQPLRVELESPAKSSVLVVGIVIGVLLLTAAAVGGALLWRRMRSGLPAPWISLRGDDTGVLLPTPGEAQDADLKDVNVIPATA
UniProt O00743: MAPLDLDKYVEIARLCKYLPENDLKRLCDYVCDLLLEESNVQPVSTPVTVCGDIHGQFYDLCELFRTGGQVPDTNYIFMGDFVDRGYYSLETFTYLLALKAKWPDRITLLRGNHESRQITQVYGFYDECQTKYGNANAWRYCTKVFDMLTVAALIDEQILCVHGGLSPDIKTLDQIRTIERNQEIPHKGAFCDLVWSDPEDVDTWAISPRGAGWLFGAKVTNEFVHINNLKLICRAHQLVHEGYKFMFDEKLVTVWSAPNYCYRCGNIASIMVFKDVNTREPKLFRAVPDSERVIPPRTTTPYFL
UniProt O00170: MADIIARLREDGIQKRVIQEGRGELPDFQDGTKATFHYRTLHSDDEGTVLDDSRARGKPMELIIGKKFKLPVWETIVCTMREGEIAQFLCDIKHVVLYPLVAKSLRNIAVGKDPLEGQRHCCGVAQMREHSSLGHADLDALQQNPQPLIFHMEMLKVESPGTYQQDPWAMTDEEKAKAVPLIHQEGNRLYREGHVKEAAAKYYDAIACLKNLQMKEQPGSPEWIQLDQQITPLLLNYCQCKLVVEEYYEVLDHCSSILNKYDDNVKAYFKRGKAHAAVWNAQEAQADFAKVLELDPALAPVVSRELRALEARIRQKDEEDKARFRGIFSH
UniProt O15015: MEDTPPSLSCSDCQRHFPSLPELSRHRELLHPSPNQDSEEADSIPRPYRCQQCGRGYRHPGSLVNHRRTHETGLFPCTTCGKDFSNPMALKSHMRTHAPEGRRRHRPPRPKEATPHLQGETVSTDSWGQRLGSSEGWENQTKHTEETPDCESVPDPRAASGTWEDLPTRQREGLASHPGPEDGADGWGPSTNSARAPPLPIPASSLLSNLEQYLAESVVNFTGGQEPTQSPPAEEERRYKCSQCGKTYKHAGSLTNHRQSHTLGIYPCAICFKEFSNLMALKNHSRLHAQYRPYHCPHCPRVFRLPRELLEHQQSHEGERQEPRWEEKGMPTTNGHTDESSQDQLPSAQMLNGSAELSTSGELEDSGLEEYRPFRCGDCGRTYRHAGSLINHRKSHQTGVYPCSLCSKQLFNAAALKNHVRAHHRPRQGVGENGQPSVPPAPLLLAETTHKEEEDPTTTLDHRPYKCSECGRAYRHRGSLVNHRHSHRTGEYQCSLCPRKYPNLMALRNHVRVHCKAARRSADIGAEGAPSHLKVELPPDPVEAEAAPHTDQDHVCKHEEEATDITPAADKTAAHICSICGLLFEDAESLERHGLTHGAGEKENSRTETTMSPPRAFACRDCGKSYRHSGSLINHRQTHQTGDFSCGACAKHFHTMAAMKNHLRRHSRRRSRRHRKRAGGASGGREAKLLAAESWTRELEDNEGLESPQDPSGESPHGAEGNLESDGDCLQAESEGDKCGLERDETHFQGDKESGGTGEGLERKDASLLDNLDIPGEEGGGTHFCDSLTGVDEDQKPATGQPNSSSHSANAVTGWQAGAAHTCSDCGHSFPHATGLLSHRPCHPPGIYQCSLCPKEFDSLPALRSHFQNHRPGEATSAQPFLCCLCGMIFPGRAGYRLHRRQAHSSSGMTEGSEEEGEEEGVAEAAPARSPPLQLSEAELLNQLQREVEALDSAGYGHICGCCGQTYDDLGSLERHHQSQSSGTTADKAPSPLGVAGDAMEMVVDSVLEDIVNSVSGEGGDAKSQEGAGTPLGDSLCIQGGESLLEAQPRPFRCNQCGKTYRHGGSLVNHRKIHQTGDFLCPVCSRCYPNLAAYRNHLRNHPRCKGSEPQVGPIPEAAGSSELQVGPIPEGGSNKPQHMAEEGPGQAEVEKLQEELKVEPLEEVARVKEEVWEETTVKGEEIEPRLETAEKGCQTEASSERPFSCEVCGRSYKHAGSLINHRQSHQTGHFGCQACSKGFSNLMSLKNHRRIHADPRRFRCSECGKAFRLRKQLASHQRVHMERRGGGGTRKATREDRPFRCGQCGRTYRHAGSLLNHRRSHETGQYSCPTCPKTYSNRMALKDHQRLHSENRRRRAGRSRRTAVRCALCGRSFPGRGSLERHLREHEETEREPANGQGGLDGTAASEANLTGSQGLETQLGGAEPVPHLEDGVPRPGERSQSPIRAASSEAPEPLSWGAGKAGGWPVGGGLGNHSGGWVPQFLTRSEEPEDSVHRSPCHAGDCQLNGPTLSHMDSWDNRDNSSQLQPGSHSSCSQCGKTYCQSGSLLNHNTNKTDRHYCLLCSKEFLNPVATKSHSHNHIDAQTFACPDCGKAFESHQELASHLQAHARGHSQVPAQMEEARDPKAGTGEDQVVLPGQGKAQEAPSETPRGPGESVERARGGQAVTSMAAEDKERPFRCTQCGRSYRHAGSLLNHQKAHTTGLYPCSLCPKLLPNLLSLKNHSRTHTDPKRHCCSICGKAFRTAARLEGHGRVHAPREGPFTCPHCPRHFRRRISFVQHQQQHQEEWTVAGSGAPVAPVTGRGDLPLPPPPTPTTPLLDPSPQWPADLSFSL
UniProt O00443: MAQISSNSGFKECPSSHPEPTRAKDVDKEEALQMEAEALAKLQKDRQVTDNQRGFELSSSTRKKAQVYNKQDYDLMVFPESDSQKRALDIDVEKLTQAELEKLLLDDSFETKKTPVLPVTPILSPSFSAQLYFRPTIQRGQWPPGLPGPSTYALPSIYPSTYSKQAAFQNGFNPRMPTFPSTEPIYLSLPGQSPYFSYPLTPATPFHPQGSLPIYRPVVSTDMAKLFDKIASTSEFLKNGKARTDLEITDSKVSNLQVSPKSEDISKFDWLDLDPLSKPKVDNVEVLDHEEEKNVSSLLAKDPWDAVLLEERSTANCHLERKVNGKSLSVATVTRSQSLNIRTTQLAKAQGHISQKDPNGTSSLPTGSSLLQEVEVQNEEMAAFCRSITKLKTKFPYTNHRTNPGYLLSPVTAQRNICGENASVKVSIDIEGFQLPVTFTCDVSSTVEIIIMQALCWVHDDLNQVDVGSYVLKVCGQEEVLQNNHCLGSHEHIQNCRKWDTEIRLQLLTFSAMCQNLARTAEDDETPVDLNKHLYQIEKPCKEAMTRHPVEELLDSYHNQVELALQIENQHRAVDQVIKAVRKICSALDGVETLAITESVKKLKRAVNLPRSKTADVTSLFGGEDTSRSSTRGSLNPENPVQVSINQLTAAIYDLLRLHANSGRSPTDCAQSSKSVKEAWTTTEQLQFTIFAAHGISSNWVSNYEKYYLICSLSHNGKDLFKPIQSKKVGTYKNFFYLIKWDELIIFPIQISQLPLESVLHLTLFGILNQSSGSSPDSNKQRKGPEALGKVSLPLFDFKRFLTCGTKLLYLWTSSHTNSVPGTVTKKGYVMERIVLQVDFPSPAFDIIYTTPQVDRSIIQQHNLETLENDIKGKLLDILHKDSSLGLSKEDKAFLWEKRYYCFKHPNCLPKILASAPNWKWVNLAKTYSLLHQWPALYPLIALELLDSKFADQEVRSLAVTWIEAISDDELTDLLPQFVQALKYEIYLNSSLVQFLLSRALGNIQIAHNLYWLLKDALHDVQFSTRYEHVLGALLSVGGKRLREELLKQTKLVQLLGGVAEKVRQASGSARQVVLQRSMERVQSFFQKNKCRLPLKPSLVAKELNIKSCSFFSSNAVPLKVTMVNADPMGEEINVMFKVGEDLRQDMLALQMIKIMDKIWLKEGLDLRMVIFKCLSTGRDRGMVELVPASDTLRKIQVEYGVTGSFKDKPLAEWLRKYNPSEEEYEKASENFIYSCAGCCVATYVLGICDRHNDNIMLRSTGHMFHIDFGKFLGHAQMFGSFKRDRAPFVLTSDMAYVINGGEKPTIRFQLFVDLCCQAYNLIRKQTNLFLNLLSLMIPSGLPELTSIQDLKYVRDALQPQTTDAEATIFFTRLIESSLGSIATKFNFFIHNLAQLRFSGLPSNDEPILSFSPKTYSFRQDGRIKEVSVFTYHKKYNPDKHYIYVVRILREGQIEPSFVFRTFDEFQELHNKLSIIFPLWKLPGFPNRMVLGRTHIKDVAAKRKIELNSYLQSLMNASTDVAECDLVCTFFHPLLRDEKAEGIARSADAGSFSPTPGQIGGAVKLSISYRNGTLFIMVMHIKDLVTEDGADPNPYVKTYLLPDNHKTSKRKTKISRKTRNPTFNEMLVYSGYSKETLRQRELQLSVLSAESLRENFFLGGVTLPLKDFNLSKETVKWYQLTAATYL
UniProt Q16543: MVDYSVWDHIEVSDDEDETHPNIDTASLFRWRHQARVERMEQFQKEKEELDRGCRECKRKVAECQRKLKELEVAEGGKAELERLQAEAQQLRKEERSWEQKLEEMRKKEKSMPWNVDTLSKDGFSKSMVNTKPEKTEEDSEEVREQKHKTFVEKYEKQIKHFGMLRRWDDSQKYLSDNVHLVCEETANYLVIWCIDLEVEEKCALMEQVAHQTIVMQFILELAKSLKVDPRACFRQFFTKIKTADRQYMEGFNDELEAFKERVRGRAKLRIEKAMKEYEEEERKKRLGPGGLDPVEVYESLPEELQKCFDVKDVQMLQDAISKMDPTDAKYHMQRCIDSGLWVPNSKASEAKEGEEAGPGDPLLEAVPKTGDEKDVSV
UniProt Q9UBQ5, whole entry: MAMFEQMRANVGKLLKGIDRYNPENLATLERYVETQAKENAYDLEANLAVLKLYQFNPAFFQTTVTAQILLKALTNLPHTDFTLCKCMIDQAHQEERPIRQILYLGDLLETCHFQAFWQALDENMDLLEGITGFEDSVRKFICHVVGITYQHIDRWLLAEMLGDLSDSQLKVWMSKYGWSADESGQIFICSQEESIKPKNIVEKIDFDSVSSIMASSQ
UniProt O00400: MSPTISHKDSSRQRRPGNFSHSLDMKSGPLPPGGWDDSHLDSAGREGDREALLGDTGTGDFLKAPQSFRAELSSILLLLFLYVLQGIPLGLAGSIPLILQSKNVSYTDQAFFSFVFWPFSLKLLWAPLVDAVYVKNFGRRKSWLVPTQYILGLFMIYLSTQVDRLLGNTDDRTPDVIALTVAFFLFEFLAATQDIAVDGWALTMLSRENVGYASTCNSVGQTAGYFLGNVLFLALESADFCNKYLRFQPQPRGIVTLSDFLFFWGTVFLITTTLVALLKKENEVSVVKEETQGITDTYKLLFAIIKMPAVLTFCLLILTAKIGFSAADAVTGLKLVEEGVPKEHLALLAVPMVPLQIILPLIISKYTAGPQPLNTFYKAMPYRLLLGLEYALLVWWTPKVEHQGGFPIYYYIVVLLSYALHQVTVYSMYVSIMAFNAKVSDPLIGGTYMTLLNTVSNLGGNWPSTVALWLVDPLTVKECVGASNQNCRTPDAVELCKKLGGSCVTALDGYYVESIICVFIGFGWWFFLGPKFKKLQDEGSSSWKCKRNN
UniProt O14737: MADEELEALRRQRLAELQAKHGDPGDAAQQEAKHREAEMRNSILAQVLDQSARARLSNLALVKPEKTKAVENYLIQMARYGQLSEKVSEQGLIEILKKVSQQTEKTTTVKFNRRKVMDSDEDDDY

± gives the standard deviation of the averaged measurements. Only a part is listed here, and it is no random draw.

Compound in this assay: Nc1ncnc2c1ncn2[C@@H]1O[C@H](COP(=O)(O)OP(=O)(O)NP(=O)(O)O)[C@@H](O)[C@H]1O [adenylyl imidodiphosphate]
Kind of assay: NP40-soluble protein abundance relative to vehicle (solubility fold change) (ratio); higher = more soluble protein in presence of AMP-PNP. The gist of the method: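 Jurkat crude lysate (Dounce-homogenised) was treated with eight concentrations from 0.1 to 10 mM for 10 min at room temperature, then 3 min at 37 °C. It was solubilised with 0.8% NP40 and benzonase (60 min, 4 °C) and ultracentrifuged, and the supernatant was TMT-labelled for LC-MS/MS. Intensities were vsn-normalised, and the value is the fold change against the NP40-processed vehicle per replicate, from three independent experiments.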

Consider AKAP8 (UniProt O43823), for which the NP40-soluble protein abundance (concentration: 1mM) was 1.01 ± 0.021; the NP40-soluble protein abundance (concentration: 2mM) is 1.08 ± 0.14; the NP40-soluble protein abundance (concentration: 4mM) came out at 1.06 ± 0.032; the NP40-soluble protein abundance (concentration: 6mM) is 1.12 ± 0.059; the NP40-soluble protein abundance (concentration: 8mM) turned out to be 1.12 ± 0.077; the NP40-soluble protein abundance (concentration: 10mM) came out at 1.13 ± 0.09.

As for “M0R0H0 and related entries (UniProt P55899)”, the NP40-soluble protein abundance runs as follows: (concentration: 1mM) 1 ± 0.015; (concentration: 2mM) 1.01 ± 0.021; (concentration: 4mM) 0.9995 ± 0.0078; (concentration: 6mM) 1 ± 0.014; (concentration: 8mM) 1.007 ± 0.01; (concentration: 10mM) 0.999 ± 0.018.

With “M0R0P7 and related entries (UniProt Q02543)”, the NP40-soluble protein abundance is, setting by setting: (concentration: 1mM) 0.981 ± 0.063; (concentration: 2mM) 0.927 ± 0.11; (concentration: 4mM) 0.966 ± 0.098; (concentration: 6mM) 0.911 ± 0.057; (concentration: 8mM) 0.864 ± 0.071; (concentration: 10mM) 0.955 ± 0.13.

Consider UniProt O00743 and related entries, for which the NP40-soluble protein abundance is, setting by setting: (concentration: 1mM) 0.9646 ± 0.0067; (concentration: 2mM) 0.868 ± 0.12; (concentration: 4mM) 0.899 ± 0.062; (concentration: 6mM) 0.948 ± 0.014; (concentration: 8mM) 0.966 ± 0.045; (concentration: 10mM) 0.902 ± 0.12.

For “K7EKG9 and related entries (UniProt Q14CW9)”, the NP40-soluble protein abundance runs as follows: (concentration: 1mM) 1.03 ± 0.038; (concentration: 2mM) 1.02 ± 0.059; (concentration: 4mM) 0.998 ± 0.031; (concentration: 6mM) 1.01 ± 0.024; (concentration: 8mM) 1.01 ± 0.037; (concentration: 10mM) 0.994 ± 0.047.

As to UniProt O14686 and related entries, the NP40-soluble protein abundance is 1.02 ± 0.051 (concentration: 1mM); 1.11 ± 0.039 (concentration: 2mM); 1.05 ± 0.035 (concentration: 4mM); 0.995 ± 0.049 (concentration: 6mM); 0.98 ± 0.045 (concentration: 8mM); 1 ± 0.028 (concentration: 10mM).

In the case of ARPC2 (UniProt O15144), the NP40-soluble protein abundance (concentration: 1mM) was 0.974 ± 0.033; the NP40-soluble protein abundance (concentration: 2mM) came to 0.896 ± 0.11; the NP40-soluble protein abundance (concentration: 4mM) was determined as 0.937 ± 0.023; the NP40-soluble protein abundance (concentration: 6mM) was determined as 0.976 ± 0.031; the NP40-soluble protein abundance (concentration: 8mM) is 0.994 ± 0.046; the NP40-soluble protein abundance (concentration: 10mM) stood at 0.957 ± 0.048.

On to AIP (UniProt O00170), for which the NP40-soluble protein abundance worked out at 0.984 ± 0.038 (concentration: 1mM); 1 ± 0.029 (concentration: 2mM); 0.935 ± 0.051 (concentration: 4mM); 0.934 ± 0.017 (concentration: 6mM); 0.914 ± 0.023 (concentration: 8mM); 0.894 ± 0.066 (concentration: 10mM).

Turning to UniProt O15015 and related entries, the NP40-soluble protein abundance (concentration: 1mM) is 1.007 ± 0.0041; the NP40-soluble protein abundance (concentration: 2mM) was 1.01 ± 0.049; the NP40-soluble protein abundance (concentration: 4mM) is 1.03 ± 0.024; the NP40-soluble protein abundance (concentration: 6mM) was found to be 1.01 ± 0.037; the NP40-soluble protein abundance (concentration: 8mM) is 0.983 ± 0.074; the NP40-soluble protein abundance (concentration: 10mM) was 1 ± 0.074.

Consider PIK3C2A (UniProt O00443), for which the NP40-soluble protein abundance amounted to 1 ± 0.017 (concentration: 1mM); 1.03 ± 0.022 (concentration: 2mM); 1.02 ± 0.047 (concentration: 4mM); 1.09 ± 0.025 (concentration: 6mM); 1.06 ± 0.038 (concentration: 8mM); 1.06 ± 0.059 (concentration: 10mM).

Consider “K7EL68 and related entries (UniProt Q16543)”, for which the NP40-soluble protein abundance reads like this: (concentration: 1mM) 1.04 ± 0.028; (concentration: 2mM) 1.07 ± 0.09; (concentration: 4mM) 0.995 ± 0.042; (concentration: 6mM) 1.011 ± 0.009; (concentration: 8mM) 0.985 ± 0.0074; (concentration: 10mM) 1.02 ± 0.034.

As for UniProt O14787-2, the NP40-soluble protein abundance by setting is: (concentration: 1mM) 1.03 ± 0.024; (concentration: 2mM) 1.05 ± 0.037; (concentration: 4mM) 1.04 ± 0.039; (concentration: 6mM) 1.02 ± 0.021; (concentration: 8mM) 1.02 ± 0.041; (concentration: 10mM) 1.03 ± 0.038.

In the case of “K7ERF1 and related entries (UniProt Q9UBQ5)”, the NP40-soluble protein abundance is, setting by setting: (concentration: 1mM) 1 ± 0.018; (concentration: 2mM) 1.02 ± 0.045; (concentration: 4mM) 1.02 ± 0.063; (concentration: 6mM) 1.15 ± 0.066; (concentration: 8mM) 1.15 ± 0.085; (concentration: 10mM) 1.26 ± 0.091.

For the target “K7EJH8 and related entries (UniProt O43707)”, the NP40-soluble protein abundance (concentration: 1mM) is 1.03 ± 0.02; the NP40-soluble protein abundance (concentration: 2mM) was determined as 1.01 ± 0.03; the NP40-soluble protein abundance (concentration: 4mM) turned out to be 0.98 ± 0.042; the NP40-soluble protein abundance (concentration: 6mM) is 0.965 ± 0.019; the NP40-soluble protein abundance (concentration: 8mM) was found to be 0.935 ± 0.035; the NP40-soluble protein abundance (concentration: 10mM) amounted to 0.942 ± 0.03.

With SLC33A1 (UniProt O00400), the NP40-soluble protein abundance (concentration: 1mM) was 1 ± 0.014; the NP40-soluble protein abundance (concentration: 2mM) stood at 0.978 ± 0.059; the NP40-soluble protein abundance (concentration: 4mM) was 0.991 ± 0.045; the NP40-soluble protein abundance (concentration: 6mM) was 0.964 ± 0.025; the NP40-soluble protein abundance (concentration: 8mM) amounted to 0.966 ± 0.032; the NP40-soluble protein abundance (concentration: 10mM) stood at 0.956 ± 0.052.

In the case of PDCD5 (UniProt O14737), the NP40-soluble protein abundance was 0.997 ± 0.055 (concentration: 1mM); 1.02 ± 0.1 (concentration: 2mM); 0.967 ± 0.04 (concentration: 4mM); 0.951 ± 0.11 (concentration: 6mM); 0.908 ± 0.067 (concentration: 8mM); 0.969 ± 0.04 (concentration: 10mM).
